These results are taken from paper PMC13192270, “RhlR quorum-sensing receptor ligand sensitivity regulates the differential expression of phenazine genes in Pseudomonas aeruginosa” (Journal of Bacteriology, 2026).

By UniProt entry, the sequences of proteins in these tests, tags left out.
UniProt P20581: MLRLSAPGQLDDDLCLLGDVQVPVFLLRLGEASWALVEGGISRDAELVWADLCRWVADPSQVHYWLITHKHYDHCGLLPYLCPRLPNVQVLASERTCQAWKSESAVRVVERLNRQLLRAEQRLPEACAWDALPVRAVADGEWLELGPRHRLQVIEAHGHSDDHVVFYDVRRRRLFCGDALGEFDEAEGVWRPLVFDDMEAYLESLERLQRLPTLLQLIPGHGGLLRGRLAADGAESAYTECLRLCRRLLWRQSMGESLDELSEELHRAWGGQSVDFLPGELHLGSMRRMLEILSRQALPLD
UniProt P54292: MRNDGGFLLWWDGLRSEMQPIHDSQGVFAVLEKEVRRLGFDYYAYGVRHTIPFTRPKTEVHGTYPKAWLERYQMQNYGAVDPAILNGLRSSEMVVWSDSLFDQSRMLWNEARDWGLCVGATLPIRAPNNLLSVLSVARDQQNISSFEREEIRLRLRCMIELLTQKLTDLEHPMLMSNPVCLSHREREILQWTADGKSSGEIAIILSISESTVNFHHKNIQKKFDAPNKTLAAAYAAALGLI

Experiment [1] concerns the target 6x-His-PqsE (Pseudomonas aeruginosa) (UniProt P20581). As to the kind of experiment: SEC; large scale (1 L): RhlR co-purified with 6x-His-PqsE on Ni-NTA beads, then Superose-6 in 50 mM Tris HCl pH 8.0, 150 mM NaCl, 200 µM C6HSL.
For experiment [2] the target is unchanged. As to the kind of experiment: pull-down; 6x-His-PqsE and untagged RhlR co-expressed from pETDuet-1 in E. coli BL21 (DE3) with 200 µM C6HSL; soluble fraction on Ni-NTA magnetic beads, 4°C, 45 min; 50 mM Tris-HCl pH 8.0, 150 mM NaCl, 0.1% Triton X-100, wash 30 mM imidazole, elution 300 mM imidazole; input and output on SDS-PAGE, Coomassie.

Results are given in words; binding and its absence hold for the method and conditions named. For some assays here: In cells and extracts the contact can be indirect. Some binding calls cover weakened binding; strength is not graded here.

“WT RhlR (from UniProt P54292 1-241) (receptor)”: the binding result in experiment [1] and in experiment [2] was “binds” in each case.
